Data reported in patent US20200216432A1, “SULFONAMIDE DERIVATIVES AS STAT3 INHIBITORS FOR THE TREATMENT OF PROLIFERATIVE DISEASES” (King's College London, priority 2017, published 2020).

system: MDA-MB-231 breast (STAT3-dependent) cancer cell line; test: MTT cell viability assay, MDA-MB-231; assay type: cell-based, human; details: STAT3-null A4 versus STAT3-dependent MDA-MB-231
Excerpt: MTT Cell viability assay with both MDA-MB-231 breast (STAT3-dependent) and A4 (STAT3-null) cancer cell lines.
After observing significant STAT3 dimerisation inhibitory activity in the preliminary FP assay, the target ligand and related fragments were progressed to an MTT cytotoxicity assay to evaluate in a STAT3-dependent tumour cell line (MDA MB 231, breast cancer) and a STAT3 null A4 cell line. It was anticipated that the compounds would show selective toxicity towards the STAT3-dependent MDA MB 231 cell line and would have lost activity in the STAT3 null A4 cell line if the mechanism of action was STAT3-mediated.
For each cell line, a total of 10,000 cells were seeded for 24 hours before addition of the inhibitors. The cells were grown in normal cell culture conditions at 37° C. under a 5% CO2 humidified atmosphere using an appropriate medium. The cell count was adjusted to 10^5 cells/ml, and 5,000-20,000 cells were added per well depending on the cell line. The cells were then incubated for 24 hours, and 1 μl aliquots of the inhibitors were added to the wells in triplicate. […] Absorbance was quantified by spectrophotometry at A=570 nm (Envision™ Plate Reader, PerkinElmer™, USA). IC50 values were calculated by a dose-response analysis using the Prism GraphPad Prism® software package.

Question: How did the Selectivity ratio turn out when `COC(=O)c1ccc(N(C)S(=O)(=O)c2cc(C(=O)NCc3ccc(OCCN4CCOCC4)cc3)sc2Br)cc1` [Compound 25, methyl 4-((2-bromo-N-methyl-5-((4-(2-morpholinoethoxy)benzyl)carbamoyl)thiophene)-3-sulfonamido)benzoate] was run?
Answer: The Selectivity ratio was 12.11.

Question: For `COC(=O)c1ccc(N(C)S(=O)(=O)c2cc(C(=O)Nc3ccc(OCCN4CCOCC4)cc3)sc2Br)cc1` [Compound 29, methyl 4-((2-bromo-N-methyl-5-((4-(2-morpholinoethoxy)phenyl)carbamoyl)thiophene)-3-sulfonamido)benzoate], which Selectivity ratio is on record?
Answer: The Selectivity ratio was 9.24.

Question: `COC(=O)c1ccc(N(C)S(=O)(=O)c2cc(C(=O)Nc3ccc(N4CCN(C(=O)c5cc6ccccc6o5)CC4)cc3)sc2Br)cc1` [Compound 39, methyl 4-((5-((4-(4-(benzofuran-2-carbonyl)piperazin-1-yl)phenyl)carbamoyl)-2-bromo-N-methylthiophene)-3-sulfonamido)benzoate] was tested. Which Selectivity ratio did it give?
Answer: The Selectivity ratio was 9.
